According to PubChem BioAssay AID540256 (National Center for Advancing Translational Sciences (NCATS), 2011):
Hit rate of the full screen: of about 300,000 compounds, about 3,700 (1.2%) were called active. Inconclusive results, whose numbers are uncertain, are shown with a selection of clear calls. Calls follow the shape of the full dose curve; tested in HEK293 cells. Potencies beside an inconclusive call are fits to weak or partial responses and may not hold up.
% is scaled to controls: 0 for no effect and ±100 for the full control effect; potency is read from the fitted curve at half-maximal effect.

Test: qHTS for Inhibitors of binding or entry into cells for Lassa Virus; also: nearly all actives have a fitted effect of over 50% in size
Conditions: Lassa virus pseudotype entry inhibition, cell reporter; activity change, negative = inhibition: at 37.9 µM (top of the series) unless noted
With `O=C(NCc1csc(-c2ccccc2)n1)c1cc(F)cc2c1OCOC2` the Potency was inconclusive: 35.5 µM [activator, single point].
In the case of `CCOC(=O)CSc1nnc2n(C3CCCCC3)c(=O)c3c4c(sc3n12)CCCC4`, the Potency is reported as inconclusive: 0.517 µM [activator, partial curve, poor fit].
In the case of `O=C(CSc1n[nH]c(-c2ccccc2Cl)n1)NC1CCCCC1`, the Potency is reported as inconclusive: 5.62 µM [inhibitor, single point].
In the case of `CC1(C(=O)N2CCN(c3ccccc3)CC2)CC1(Cl)Cl` (configuration not stated), the Potency is reported as “inactive”.
With `CCOC(=O)Cc1nc(-c2ccc(Cl)cc2)n[nH]1` the Potency was inconclusive: 11.2 µM [activator, partial curve, poor fit].
For `CCS(=O)(=O)c1ccc(S(=O)(=O)CC)s1`, the Potency was “inactive”.
In the case of `CCNC(=O)COC(=O)c1cc(C)n(-c2ccccc2)c1C`, the Potency is reported as “inactive”.
For `CCSc1nn(CC(=O)Nc2ccc(C(=O)OC)cc2)c(N)c1S(=O)(=O)c1ccc(C)cc1`, the Potency was inconclusive: 20 µM [inhibitor, partial curve, poor fit].
With `CC(=O)N1CCC2(CC1)C/C(=N\NC(=S)Nc1ccccc1F)c1cc(O)ccc1O2` the Potency was inconclusive: 7.08 µM [inhibitor, partial curve].
In the case of `O=C1C(=O)c2ccc(-c3ccccc3)cc2-c2ccccc21`, the Potency is reported as inconclusive: 7.3 µM [inhibitor, partial curve, poor fit].
For `COc1ccc(CN(C)Cc2ccccc2)c(OC)c1OC`, the Potency was “inactive”.
In the case of `COc1ccc(-[n+]2c(-c3ccccc3)cc(-c3ccc(C)cc3)cc2-c2ccccc2)cc1`, the Potency is reported as inconclusive: 1.12 µM [inhibitor, full curve, poor fit].
In the case of `COc1ccc(C(=O)Nc2ccccc2C(=O)Nc2ccccc2C(=O)O)cc1`, the Potency is reported as inconclusive: 1.12 µM [inhibitor, partial curve, poor fit].
In the case of `N#CCC(=O)N/N=C/c1cn(Cc2ccccc2C#N)c2ccccc12`, the Potency is reported as inconclusive: 5.62 µM [inhibitor, single point].
In the case of `O=C1c2ccccc2NC(c2ccccc2O)N1c1ccc(F)cc1` (configuration not stated), the Potency is reported as inconclusive: 35.5 µM [inhibitor, single point].
In the case of `CCC(=NCCc1c[nH]c2ccccc12)c1c(O)n(-c2ccc(C)cc2)c(=O)[nH]c1=O`, the Potency is reported as active: 1.84 µM.
For `Cc1cc(C)c2c(n1)sc1c(=O)n(-c3cc(Cl)ccc3C)nnc12`, the Potency was “inactive”.
In the case of `CC(=O)CCCCn1c(=O)c2c(ncn2C)n(C)c1=O`, the Potency is reported as inconclusive: 3.26 µM [activator, partial curve, poor fit].
With `CCCCOC(=O)C1CCC[C@@H](C)N1` (some centres not stated) the Potency was inconclusive: 0.158 µM [inhibitor, full curve, poor fit].
In the case of `Cc1ccc(C2CCN(C(=O)Nc3ccc(F)cc3)C2)cc1` (configuration not stated), the Potency is reported as inconclusive: 11.2 µM [inhibitor, single point].
With `COc1ccc(N2CCN(C(C)C(=O)N(C)Cc3ccccc3)CC2)cc1` (configuration not stated) the Potency was inconclusive: 2 µM [inhibitor, full curve, poor fit].
In the case of `CCN(CC)S(=O)(=O)c1ccc2oc(SCC(=O)Nc3cc(C)on3)nc2c1`, the Potency is reported as inconclusive: 17.8 µM [inhibitor, partial curve, poor fit].
In the case of `CCOc1ccc(C(=O)OC(C)C(=O)N2CCN(Cc3ccccc3)CC2)cc1` (configuration not stated), the Potency is reported as inconclusive: 2.24 µM [inhibitor, full curve].
For `CCOc1ccc(C(=O)N2CCN(c3ccccn3)CC2)cc1`, the Potency was inconclusive: 1.26 µM [inhibitor, single point].
In the case of `COc1ccccc1NC(=O)COn1nnc2ccc(S(=O)(=O)N3CCOCC3)cc21`, the Potency is reported as “inactive”.
In the case of `Fc1ccc(CCNC(=S)Nc2ccc(F)c(Cl)c2)cc1`, the Potency is reported as inconclusive: 22.4 µM [inhibitor, single point].
In the case of `CCc1ccccc1NC(=O)c1cc(-c2cccs2)on1`, the Potency is reported as “inactive”.
With `Cc1cc(C(F)(F)F)c(C#N)c(SCC(=O)NC(C)(C)C)n1` the Potency was inconclusive: 2.06 µM [inhibitor, partial curve].
With `Cc1ccc(O)c(C(=O)c2cnc3c(c2)COc2ccccc2-3)c1` the Potency was “inactive”.
For `C=CSc1sc(Cl)c(N2CCOCC2)c1[N+](=O)[O-]`, the Potency was inconclusive: 12.6 µM [inhibitor, single point].
With `CCN(CC)S(=O)(=O)c1ccc2oc(C(=O)NCc3ccccc3OC)c(C)c2c1` the Potency was inconclusive: 35.5 µM [inhibitor, partial curve, poor fit].
In the case of `COc1ccc(NC(=S)Nc2nc(CC(=O)Nc3ccccc3OC)cs2)cc1`, the Potency is reported as inconclusive: 4.61 µM [inhibitor, partial curve, poor fit].
For `COc1cccc(CNC(=O)N2CCN(S(=O)(=O)c3ccc(Cl)cc3)CC2)c1`, the Potency was “inactive”.
In the case of `CC(C)CC(=O)Nc1ccc(-c2nnn(CC(=O)NCc3ccco3)n2)cc1`, the Potency is reported as “inactive”.
With `c1ccc(-c2cnc(-c3ccccc3)nc2)cc1` the Potency was inconclusive: 11.6 µM [inhibitor, single point].
For `Cc1ccc(S(=O)(=O)N(C)c2ccc(C(=O)N3CCOCC3)cc2)cc1`, the activity change, negative = inhibition was inconclusive: 11% [activator].
For `COC(=O)c1ccccc1NC(=O)Cn1c(=O)n(-c2cccc(C(F)(F)F)c2)c(=O)c2c(C)c(C)sc21`, the Potency was inconclusive: 15.8 µM [activator, single point].
For `Cc1cccc2sc(N(CCCN(C)C)C(=O)COc3ccccc3)nc12`, the Potency was “inactive”.
With `Cc1nc(NC(=O)/C=C/c2ccccc2)sc1C(=O)Nc1cccc(Cl)c1` the Potency was inconclusive: 35.5 µM [inhibitor, single point].
With `CC(Nc1cc(N2CCN(S(C)(=O)=O)CC2)ccc1[N+](=O)[O-])c1ccccc1` (configuration not stated) the Potency was inconclusive: 35.5 µM [inhibitor, single point].
With `CC1(C)Cc2c(cnn2-c2ccc(F)cc2)C(NC(=O)Cn2cncn2)C1` (configuration not stated) the Potency was inconclusive: 6.31 µM [activator, single point].
For `CCOC(=O)N1CCN(C(=O)CNC(=O)c2nn(-c3ccc(OC)cc3)c(=O)c3ccccc23)CC1`, the Potency was inconclusive: 0.92 µM [activator, partial curve].
With `CNC(=S)N/N=C/c1cn(CCOc2cccc(OC)c2)c2ccccc12` the Potency was inconclusive: 3.55 µM [activator, single point].
For `O=C(COC(=O)c1ccc2ncsc2c1)Nc1ncc(Cl)cc1Cl`, the Potency was “inactive”.
For `NS(=O)(=O)c1ccc(N=Cc2c(O)n(-c3ccccc3)c(=O)[nH]c2=O)cc1`, the Potency was “inactive”.
In the case of `Cc1ccc(Cl)cc1N1CCN(C(=O)CN2C(=O)CSc3c2c(C)nn3-c2ccccc2)CC1`, the Potency is reported as “inactive”.
For `CCOC(=O)c1sc2nc[nH]c(=O)c2c1C`, the Potency was “inactive”.
For `COCCNC(=O)Cn1c(=O)n(CCCCCC(=O)Nc2ccccc2)c(=O)c2sccc21`, the Potency was inconclusive: 35.5 µM [activator, single point].
For `O=[N+]([O-])c1cc(O)c(O)c([N+](=O)[O-])c1`, the Potency was inconclusive: 5.8 µM [activator, single point].
In the case of `COc1ccc(Cn2nnnc2C(c2cccs2)N2CCN(c3ccc([N+](=O)[O-])cc3)CC2)cc1` (configuration not stated), the Potency is reported as “inactive”.
In the case of `CC1CCc2cc(F)ccc2N1C(=O)CSc1nnc2c(n1)[nH]c1ccccc12` (configuration not stated), the Potency is reported as inconclusive: 14.1 µM [inhibitor, single point].
With `COc1ccc(/C=C(\C#N)c2nc3ccccc3n2C)c(OC)c1` the Potency was inconclusive: 3.16 µM [activator, partial curve, poor fit].
In the case of `N#Cc1ccc(N2Cc3ccccc3C2=NC(=O)c2cccnc2Cl)cc1`, the Potency is reported as inconclusive: 7.08 µM [inhibitor, partial curve, poor fit].
For `COCCn1c(-c2ccc(OC)c(OC)c2)nc2ccccc21`, the Potency was inconclusive: 7.08 µM [activator, partial curve, poor fit].
For `O=C(O)c1cccc(-n2cccc2C=C2C(=O)c3ccccc3C2=O)c1`, the Potency was inconclusive: 12.6 µM [activator, single point].
With `CN(C)S(=O)(=O)N1CCCC(C(=O)c2ccc(-c3ccccc3)c(F)c2)C1` (configuration not stated) the Potency was inconclusive: 29.1 µM [inhibitor, single point].
With `CC(C)NC(=O)CSc1nc2ccccc2n1CC(=O)N(C(C)C)C(C)C` the Potency was “inactive”.
In the case of `CCCn1c(=O)n(C)c(=O)c2c(SCC(=O)NCc3ccco3)nc(C3CC3)nc21`, the Potency is reported as inconclusive: 1.26 µM [inhibitor, full curve, poor fit].
With `CNc1ccc(C=C2C=Cc3ccccc32)cc1` the Potency was inconclusive: 35.5 µM [inhibitor, single point].
For `CCCCN(C)CCCNC(=O)Cn1ncc2c3ccccc3n(Cc3cc(C)ccc3C)c2c1=O`, the Potency was inconclusive: 22.4 µM [inhibitor, single point].
For `CCOC(=O)N1CCN(C(=O)c2oc3ccc(S(=O)(=O)N4CC(C)CC(C)C4)cc3c2C)CC1` (configuration not stated), the Potency was “inactive”.
For `CCN(Cc1ccccc1)C(=O)c1sc2nc3n(c(=O)c2c1C)CCCC3`, the Potency was inconclusive: 35.5 µM [inhibitor, single point].
With `CCOc1ccc(CNS(=O)(=O)c2ccc(-c3coc(C)n3)cc2)cc1OC` the Potency was “inactive”.
In the case of `COc1ccc(CCN2C(=O)c3[nH]nc(-c4ccccc4O)c3C2c2ccccc2)cc1OC` (configuration not stated), the Potency is reported as active: 17.8 µM.
In the case of `O=C(CN1CCN(c2ccccc2O)CC1)Nc1ccc2c(c1)CCC2`, the Potency is reported as inconclusive: 11.2 µM [inhibitor, partial curve, poor fit].
For `O=C(NCCCNC(=O)c1cc(Cl)ccc1Cl)c1ccco1`, the Potency was inconclusive: 1 µM [inhibitor, full curve, poor fit].
In the case of `COc1cccc(CNC(=O)CCC2CCCN(C(=O)CCC(F)(F)F)C2)c1` (configuration not stated), the Potency is reported as “inactive”.
